Some results were stated once for a whole list of compounds, not compound by compound.
How the values were obtained:
Type in all cases: in vivo
[1] = system: Diabrotica balteata; test: Example B6 Activity against Diabrotica balteata (sprayed maize seedlings); conditions: 12.5 ppm spray liquor, second-stage larvae, 6 days
[2] = system: Heliothis virescens; test: Example B3 Activity against Heliothis virescens (eggs on filter paper); conditions: 0.8 ml test solution on 0- to 24-hour-old eggs, evaluation after 6 days
[3] = system: Tetranychus urticae; test: Example B7 Activity against Tetranychus urticae (sprayed bean plants); conditions: 12.5 ppm spray liquor, mixed population, 25° C., 6 days
[4] = system: Spodoptera littoralis; test: Example B1 Activity against Spodoptera littoralis (sprayed soya bean plants); conditions: 12.5 ppm spray liquor, first-stage caterpillars, 3 days
[5] = system: Spodoptera littoralis; test: Example B2 Activity against Spodoptera littoralis, systemic (maize seedlings); conditions: maize seedlings 6 days in test solution, L1 larvae on cut leaves, 4 days
[6] = system: Plutella xylostella; test: Example B4 Activity against Plutella xylostella caterpillars (sprayed cabbage plants); conditions: 12.5 ppm spray liquor, first-stage caterpillars, 3 days

Measured: reduction in the pest population

CCC(C)[C@H]1O[C@]2(C=C[C@@H]1C)C[C@@H]1C[C@@H](C/C=C(\C)[C@@H](O[C@H]3C[C@H](OC)[C@@H](O[C@H]4C[C@H](OC)[C@H](N(CCC(C)CCC=C(C)C)CCC(C)CCC=C(C)C)[C@H](C)O4)[C@H](C)O3)C(C)/C=C/C=C3\CO[C@@H]4[C@H](O)C(C)=C[C@@H](C(=O)O1)[C@]34O)O2 (some centres unmarked) [3.005]
more than 80%: all assays above

CCC(C)[C@H]1O[C@]2(C=C[C@@H]1C)C[C@@H]1C[C@@H](C/C=C(\C)[C@@H](O[C@H]3C[C@H](OC)[C@@H](O[C@H]4C[C@H](OC)[C@H](NCc5cc(O)ccc5O)[C@H](C)O4)[C@H](C)O3)C(C)/C=C/C=C3\CO[C@@H]4[C@H](O)C(C)=C[C@@H](C(=O)O1)[C@]34O)O2 (some centres unmarked) [1.102]
more than 80%: all assays above

CCC(C)[C@H]1O[C@]2(C=C[C@@H]1C)C[C@@H]1C[C@@H](C/C=C(\C)[C@@H](O[C@H]3C[C@H](OC)[C@@H](O[C@H]4C[C@H](OC)[C@H](NCc5ccc(OCc6ccccc6)c(OC)c5)[C@H](C)O4)[C@H](C)O3)C(C)/C=C/C=C3\CO[C@@H]4[C@H](O)C(C)=C[C@@H](C(=O)O1)[C@]34O)O2 (some centres unmarked) [1.157]
more than 80%: all assays above

CCC(C)C1OC2(C=CC1C)CC1CC(CC=C(C)C(OC3CC(OC)C(OC4CC(OC)C(NCCCc5ccccc5)C(C)O4)C(C)O3)C(C)C=CC=C3COC4C(O)C(C)=CC(C(=O)O1)C34O)O2 (centres unmarked) [1.024]
more than 80%: all assays above

CCC(C)C1OC2(C=CC1C)CC1CC(CC=C(C)C(OC3CC(OC)C(OC4CC(OC)C(NCC5CC6C=CC5C6)C(C)O4)C(C)O3)C(C)C=CC=C3COC4C(O)C(C)=CC(C(=O)O1)C34O)O2 (centres unmarked) [1.122]
more than 80%: all assays above

CCC(C)C1OC2(C=CC1C)CC1CC(CC=C(C)C(OC3CC(OC)C(OC4CC(OC)C(NCc5cc(O)ccc5[N+](=O)[O-])C(C)O4)C(C)O3)C(C)C=CC=C3COC4C(O)C(C)=CC(C(=O)O1)C34O)O2 (centres unmarked) [1.006]
more than 80%: all assays above

CCC(C)C1OC2(C=CC1C)CC1CC(CC=C(C)C(OC3CC(OC)C(OC4CC(OC)C(NCCC(C)c5ccccc5)C(C)O4)C(C)O3)C(C)C=CC=C3COC4C(O)C(C)=CC(C(=O)O1)C34O)O2 (centres unmarked) [1.042]
more than 80%: all assays above

CCC(C)C1OC2(C=CC1C)CC1CC(CC=C(C)C(OC3CC(OC)C(OC4CC(OC)C(NCC(C)c5ccccc5)C(C)O4)C(C)O3)C(C)C=CC=C3COC4C(O)C(C)=CC(C(=O)O1)C34O)O2 (mixture of isomers) [1.007]
more than 80%: all assays above

CCC(C)C1OC2(C=CC1C)CC1CC(CC=C(C)C(OC3CC(OC)C(OC4CC(OC)C(NC5CCC5)C(C)O4)C(C)O3)C(C)C=CC=C3COC4C(O)C(C)=CC(C(=O)O1)C34O)O2 (centres unmarked) [1.055]
more than 80%: all assays above

CCC(C)C1OC2(C=CC1C)CC1CC(CC=C(C)C(OC3CC(OC)C(OC4CC(OC)C(NCc5cccc(Cl)c5Cl)C(C)O4)C(C)O3)C(C)C=CC=C3COC4C(O)C(C)=CC(C(=O)O1)C34O)O2 (centres unmarked) [1.088]
more than 80%: all assays above

CCC(C)[C@H]1O[C@]2(C=C[C@@H]1C)C[C@@H]1C[C@@H](C/C=C(\C)[C@@H](O[C@H]3C[C@H](OC)[C@@H](O[C@H]4C[C@H](OC)[C@H](NCc5ccc([N+](=O)[O-])c(Cl)c5)[C@H](C)O4)[C@H](C)O3)C(C)/C=C/C=C3\CO[C@@H]4[C@H](O)C(C)=C[C@@H](C(=O)O1)[C@]34O)O2 (some centres unmarked) [1.092]
more than 80%: all assays above

CCC(C)[C@H]1O[C@]2(C=C[C@@H]1C)C[C@@H]1C[C@@H](C/C=C(\C)[C@@H](O[C@H]3C[C@H](OC)[C@@H](O[C@H]4C[C@H](OC)[C@H](N(C)CC)[C@H](C)O4)[C@H](C)O3)C(C)/C=C/C=C3\CO[C@@H]4[C@H](O)C(C)=C[C@@H](C(=O)O1)[C@]34O)O2 (some centres unmarked) [2.022]
not listed: [2]
more than 80%: all other assays above

CCC(C)C1OC2(C=CC1C)CC1CC(CC=C(C)C(OC3CC(OC)C(OC4CC(OC)C(NCc5cc(Cl)cc(Cl)c5O)C(C)O4)C(C)O3)C(C)C=CC=C3COC4C(O)C(C)=CC(C(=O)O1)C34O)O2 (centres unmarked) [1.089]
not listed: [1]
more than 80%: all other assays above

CCC(C)[C@H]1O[C@]2(C=C[C@@H]1C)C[C@@H]1C[C@@H](C/C=C(\C)[C@@H](O[C@H]3C[C@H](OC)[C@@H](O[C@H]4C[C@H](OC)[C@H](N(C)C/C=C/C(=O)OCC(=O)c5ccccc5)[C@H](C)O4)[C@H](C)O3)C(C)/C=C/C=C3\CO[C@@H]4[C@H](O)C(C)=C[C@@H](C(=O)O1)[C@]34O)O2 (some centres unmarked) [2.078]
not listed: [1]
more than 80%: all other assays above

CCC(C)C1OC2(C=CC1C)CC1CC(CC=C(C)C(OC3CC(OC)C(OC4CC(OC)C(NCCC(C)(C)C)C(C)O4)C(C)O3)C(C)C=CC=C3COC4C(O)C(C)=CC(C(=O)O1)C34O)O2 (centres unmarked) [1.011]
not listed: [5]
more than 80%: all other assays above

CCC(C)C1OC2(C=CC1C)CC1CC(CC=C(C)C(OC3CC(OC)C(OC4CC(OC)C(NCc5cc(C(F)(F)F)cc(C(F)(F)F)c5)C(C)O4)C(C)O3)C(C)C=CC=C3COC4C(O)C(C)=CC(C(=O)O1)C34O)O2 (centres unmarked) [1.125]
not listed: [3]
more than 80%: all other assays above

CCC(C)[C@H]1O[C@]2(C=C[C@@H]1C)C[C@@H]1C[C@@H](C/C=C(\C)[C@@H](O[C@H]3C[C@H](OC)[C@@H](O[C@H]4C[C@H](OC)[C@H](N(C)Cc5ccc(OC(F)F)cc5)[C@H](C)O4)[C@H](C)O3)C(C)/C=C/C=C3\CO[C@@H]4[C@H](O)C(C)=C[C@@H](C(=O)O1)[C@]34O)O2 (some centres unmarked) [2.068]
not listed: [1]
more than 80%: all other assays above

CCC(C)C1OC2(C=CC1C)CC1CC(CC=C(C)C(OC3CC(OC)C(OC4CC(OC)C(NCC(=O)OC(C)C)C(C)O4)C(C)O3)C(C)C=CC=C3COC4C(O)C(C)=CC(C(=O)O1)C34O)O2 (centres unmarked) [1.058]
not listed: [2]
more than 80%: all other assays above

Source: patent US7732416B2, “Avermectins substituted in the 4″-position having pesticidal properties” (Merial Limited, priority 2001, dated 2010)
